For this test, the target named is natural form of human TNF alpha (human) (UniProt P01375). Kind of test: sandwich ELISA, scFv immobilized, TNF alpha at 5 ng/mL. For orientation: In an ELISA, binding on a coated surface is turned into a signal by an enzyme label.

Protein sequences, listed by entry. Tags and fused reporters are not part of them. Lines headed by an entry give the natural chain unless they say otherwise; changes in a name come on top.
UniProt P01375: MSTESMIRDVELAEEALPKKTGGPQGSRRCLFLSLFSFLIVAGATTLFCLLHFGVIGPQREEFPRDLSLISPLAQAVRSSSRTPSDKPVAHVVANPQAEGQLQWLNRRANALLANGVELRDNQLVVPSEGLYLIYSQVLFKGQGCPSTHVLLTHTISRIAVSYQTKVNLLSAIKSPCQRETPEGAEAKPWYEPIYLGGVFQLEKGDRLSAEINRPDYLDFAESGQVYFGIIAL

No constants are given. Whether binding was seen depends on the method and setting. Binding calls can cover weak binding; strength is not graded here.

B1: scFv1 (scFv)
scFv: EIVMTQSPSTLSASVGDRVIITCQASQSISSYLAWYQQKPGKAPKLLIYWASTLASGVPSRFSGSGSGTEFTLTISSLQPDDFATYYCQSYYYTSNNSDGFWAFGQGTKLTVLGGGGGSGGGGSGGGGSGGGGSEVQLVESGGGLVQPGGSLRLSCKASGIDFSNSGITWVRQAPGKGLEWVGYIYPGFGIRNYANSVRGRFTISRDTSKNTVYLQMNSLRAEDTAVYYCARDPIYASSSGYADIWGQGTLVTVSS
Turning to B1, the binding result was “binds”.

The record behind these values is patent US20170107282A1 (CELL MEDICA SWITZERLAND, published 2017).
